The text below walks through data of the supplement of paper PMC10849652.

Amino acid sequences for entries named in this document (tags omitted). A change or cut given only in a name is not applied to a line headed by its entry.
UniProt Q9UP38, whole entry, looked up: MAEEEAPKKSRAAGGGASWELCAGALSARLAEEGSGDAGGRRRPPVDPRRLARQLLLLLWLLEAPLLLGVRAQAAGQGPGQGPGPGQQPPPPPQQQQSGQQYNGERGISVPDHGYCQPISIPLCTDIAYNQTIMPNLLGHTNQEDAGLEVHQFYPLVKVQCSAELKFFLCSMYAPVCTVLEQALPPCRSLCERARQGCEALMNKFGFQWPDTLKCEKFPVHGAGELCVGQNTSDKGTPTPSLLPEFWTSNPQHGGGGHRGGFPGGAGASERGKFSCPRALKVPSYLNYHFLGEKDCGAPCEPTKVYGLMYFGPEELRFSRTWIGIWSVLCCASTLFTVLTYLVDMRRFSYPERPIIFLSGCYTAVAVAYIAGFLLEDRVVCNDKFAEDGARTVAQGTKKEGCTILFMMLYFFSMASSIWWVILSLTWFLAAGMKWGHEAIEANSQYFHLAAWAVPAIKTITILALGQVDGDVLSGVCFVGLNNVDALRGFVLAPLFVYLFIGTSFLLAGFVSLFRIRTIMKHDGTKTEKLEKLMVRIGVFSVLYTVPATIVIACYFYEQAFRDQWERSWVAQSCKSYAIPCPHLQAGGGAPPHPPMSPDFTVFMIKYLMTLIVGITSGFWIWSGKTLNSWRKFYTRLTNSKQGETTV
UniProt Q8TAK5: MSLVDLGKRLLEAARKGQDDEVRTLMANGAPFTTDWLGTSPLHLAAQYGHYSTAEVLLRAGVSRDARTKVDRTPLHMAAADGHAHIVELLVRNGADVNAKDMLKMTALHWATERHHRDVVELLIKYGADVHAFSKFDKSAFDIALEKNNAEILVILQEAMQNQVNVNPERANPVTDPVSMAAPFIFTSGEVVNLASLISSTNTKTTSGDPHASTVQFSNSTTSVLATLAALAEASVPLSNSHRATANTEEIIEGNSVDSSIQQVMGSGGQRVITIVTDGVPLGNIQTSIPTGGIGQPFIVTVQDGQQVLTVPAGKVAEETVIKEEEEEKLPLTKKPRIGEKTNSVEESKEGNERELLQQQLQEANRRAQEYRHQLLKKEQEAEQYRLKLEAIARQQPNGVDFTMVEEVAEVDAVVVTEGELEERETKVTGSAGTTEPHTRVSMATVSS
UniProt Q9H840: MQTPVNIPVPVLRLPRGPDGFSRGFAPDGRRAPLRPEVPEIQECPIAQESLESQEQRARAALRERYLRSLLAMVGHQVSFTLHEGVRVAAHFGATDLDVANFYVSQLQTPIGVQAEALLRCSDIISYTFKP
UniProt Q9UN86: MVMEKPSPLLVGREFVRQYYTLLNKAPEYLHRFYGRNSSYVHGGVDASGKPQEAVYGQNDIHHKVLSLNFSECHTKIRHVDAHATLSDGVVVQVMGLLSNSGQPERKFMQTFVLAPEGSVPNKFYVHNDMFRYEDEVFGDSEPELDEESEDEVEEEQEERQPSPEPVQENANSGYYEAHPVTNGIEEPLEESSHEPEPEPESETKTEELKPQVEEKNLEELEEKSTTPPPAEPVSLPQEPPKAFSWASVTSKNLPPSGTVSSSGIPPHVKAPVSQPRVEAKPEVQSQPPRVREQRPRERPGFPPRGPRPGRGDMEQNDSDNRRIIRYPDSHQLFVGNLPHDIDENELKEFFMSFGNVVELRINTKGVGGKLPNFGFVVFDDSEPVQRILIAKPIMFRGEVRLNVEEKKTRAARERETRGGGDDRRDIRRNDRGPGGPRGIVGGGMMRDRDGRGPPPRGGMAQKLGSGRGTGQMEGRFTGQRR
UniProt Q13467, whole entry, looked up: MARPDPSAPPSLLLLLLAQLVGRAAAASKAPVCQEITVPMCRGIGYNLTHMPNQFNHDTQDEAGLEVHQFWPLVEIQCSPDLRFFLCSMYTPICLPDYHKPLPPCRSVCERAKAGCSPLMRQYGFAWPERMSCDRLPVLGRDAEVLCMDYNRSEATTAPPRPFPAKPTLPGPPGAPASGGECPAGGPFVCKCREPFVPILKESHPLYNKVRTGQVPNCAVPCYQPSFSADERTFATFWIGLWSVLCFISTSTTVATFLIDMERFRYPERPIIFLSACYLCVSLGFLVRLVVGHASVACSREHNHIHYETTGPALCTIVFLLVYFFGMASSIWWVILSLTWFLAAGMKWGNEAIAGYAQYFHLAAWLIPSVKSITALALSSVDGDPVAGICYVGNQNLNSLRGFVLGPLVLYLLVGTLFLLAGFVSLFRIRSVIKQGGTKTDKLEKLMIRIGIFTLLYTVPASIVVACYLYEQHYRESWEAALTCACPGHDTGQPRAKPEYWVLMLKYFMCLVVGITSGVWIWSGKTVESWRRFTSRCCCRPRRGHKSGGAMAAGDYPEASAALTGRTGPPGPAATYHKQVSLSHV
UniProt O94915: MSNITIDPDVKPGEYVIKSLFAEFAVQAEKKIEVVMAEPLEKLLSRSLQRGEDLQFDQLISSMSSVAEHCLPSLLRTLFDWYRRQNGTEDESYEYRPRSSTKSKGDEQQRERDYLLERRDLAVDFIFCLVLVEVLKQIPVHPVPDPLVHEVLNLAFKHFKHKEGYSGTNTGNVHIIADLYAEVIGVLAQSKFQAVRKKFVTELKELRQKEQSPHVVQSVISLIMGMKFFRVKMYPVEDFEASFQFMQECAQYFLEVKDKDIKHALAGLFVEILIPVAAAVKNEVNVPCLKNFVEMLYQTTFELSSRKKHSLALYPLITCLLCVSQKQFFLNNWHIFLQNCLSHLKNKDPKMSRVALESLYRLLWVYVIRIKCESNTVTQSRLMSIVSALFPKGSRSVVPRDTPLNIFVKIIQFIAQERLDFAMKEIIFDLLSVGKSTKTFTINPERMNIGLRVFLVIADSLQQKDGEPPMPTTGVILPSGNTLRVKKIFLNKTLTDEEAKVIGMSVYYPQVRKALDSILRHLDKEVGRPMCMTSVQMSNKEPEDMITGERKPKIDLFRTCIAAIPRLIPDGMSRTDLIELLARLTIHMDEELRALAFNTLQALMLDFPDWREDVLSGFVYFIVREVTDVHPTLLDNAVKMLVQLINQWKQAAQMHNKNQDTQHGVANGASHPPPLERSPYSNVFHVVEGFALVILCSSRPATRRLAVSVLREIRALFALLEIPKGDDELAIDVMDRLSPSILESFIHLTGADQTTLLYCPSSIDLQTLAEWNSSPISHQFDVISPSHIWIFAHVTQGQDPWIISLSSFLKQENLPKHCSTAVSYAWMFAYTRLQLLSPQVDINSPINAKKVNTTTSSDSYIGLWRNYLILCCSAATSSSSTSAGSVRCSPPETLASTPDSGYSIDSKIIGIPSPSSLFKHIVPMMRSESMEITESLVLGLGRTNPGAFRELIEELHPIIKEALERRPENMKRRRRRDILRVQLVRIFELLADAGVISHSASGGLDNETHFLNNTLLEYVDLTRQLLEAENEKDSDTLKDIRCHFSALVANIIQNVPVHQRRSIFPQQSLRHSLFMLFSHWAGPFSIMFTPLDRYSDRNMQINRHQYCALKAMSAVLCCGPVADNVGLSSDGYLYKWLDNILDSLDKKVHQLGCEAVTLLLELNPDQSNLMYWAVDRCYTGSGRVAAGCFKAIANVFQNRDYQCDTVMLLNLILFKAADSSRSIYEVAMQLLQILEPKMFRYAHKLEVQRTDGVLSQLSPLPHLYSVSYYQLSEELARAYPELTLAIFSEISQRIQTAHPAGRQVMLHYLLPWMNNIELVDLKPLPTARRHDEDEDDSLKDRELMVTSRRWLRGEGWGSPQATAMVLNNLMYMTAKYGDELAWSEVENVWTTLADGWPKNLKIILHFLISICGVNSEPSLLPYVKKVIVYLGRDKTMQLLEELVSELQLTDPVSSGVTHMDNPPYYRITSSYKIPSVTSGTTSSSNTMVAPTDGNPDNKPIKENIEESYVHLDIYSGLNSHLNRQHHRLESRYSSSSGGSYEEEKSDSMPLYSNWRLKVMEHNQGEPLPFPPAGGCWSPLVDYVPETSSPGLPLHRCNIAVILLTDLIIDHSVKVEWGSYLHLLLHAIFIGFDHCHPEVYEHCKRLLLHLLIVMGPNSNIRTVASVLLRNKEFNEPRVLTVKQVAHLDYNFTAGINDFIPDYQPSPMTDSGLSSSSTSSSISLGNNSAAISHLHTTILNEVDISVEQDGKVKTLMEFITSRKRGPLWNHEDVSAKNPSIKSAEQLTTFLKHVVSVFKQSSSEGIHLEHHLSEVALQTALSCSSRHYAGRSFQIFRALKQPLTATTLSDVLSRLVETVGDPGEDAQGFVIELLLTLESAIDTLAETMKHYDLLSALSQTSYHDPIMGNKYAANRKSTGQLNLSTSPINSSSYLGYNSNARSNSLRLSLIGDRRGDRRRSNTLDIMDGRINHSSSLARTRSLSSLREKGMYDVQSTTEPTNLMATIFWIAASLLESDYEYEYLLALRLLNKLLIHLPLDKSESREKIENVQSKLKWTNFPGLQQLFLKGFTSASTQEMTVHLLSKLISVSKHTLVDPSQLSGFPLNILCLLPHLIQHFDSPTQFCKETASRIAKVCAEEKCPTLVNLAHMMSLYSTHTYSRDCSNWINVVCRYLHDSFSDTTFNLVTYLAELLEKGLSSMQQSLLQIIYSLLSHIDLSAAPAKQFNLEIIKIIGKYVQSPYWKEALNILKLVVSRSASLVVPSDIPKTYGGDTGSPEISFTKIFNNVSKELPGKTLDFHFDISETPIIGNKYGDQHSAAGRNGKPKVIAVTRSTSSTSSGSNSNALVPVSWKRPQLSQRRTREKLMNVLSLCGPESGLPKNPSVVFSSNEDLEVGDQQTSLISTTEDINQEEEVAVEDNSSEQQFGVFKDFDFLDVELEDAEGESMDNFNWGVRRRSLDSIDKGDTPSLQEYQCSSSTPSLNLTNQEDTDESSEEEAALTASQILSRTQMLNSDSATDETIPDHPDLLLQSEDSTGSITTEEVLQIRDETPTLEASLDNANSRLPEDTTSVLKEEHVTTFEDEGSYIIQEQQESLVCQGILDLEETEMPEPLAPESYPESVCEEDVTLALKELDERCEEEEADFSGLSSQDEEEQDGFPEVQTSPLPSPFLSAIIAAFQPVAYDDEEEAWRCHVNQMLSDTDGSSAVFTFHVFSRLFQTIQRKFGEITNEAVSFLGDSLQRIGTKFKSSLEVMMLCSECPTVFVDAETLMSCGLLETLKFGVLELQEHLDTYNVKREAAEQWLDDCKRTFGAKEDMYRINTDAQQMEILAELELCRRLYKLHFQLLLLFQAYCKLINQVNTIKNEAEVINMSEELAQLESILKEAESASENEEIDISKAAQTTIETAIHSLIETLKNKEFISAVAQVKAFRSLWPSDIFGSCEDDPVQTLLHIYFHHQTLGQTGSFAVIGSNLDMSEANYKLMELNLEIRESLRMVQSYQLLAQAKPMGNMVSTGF
UniProt Q9HCG7: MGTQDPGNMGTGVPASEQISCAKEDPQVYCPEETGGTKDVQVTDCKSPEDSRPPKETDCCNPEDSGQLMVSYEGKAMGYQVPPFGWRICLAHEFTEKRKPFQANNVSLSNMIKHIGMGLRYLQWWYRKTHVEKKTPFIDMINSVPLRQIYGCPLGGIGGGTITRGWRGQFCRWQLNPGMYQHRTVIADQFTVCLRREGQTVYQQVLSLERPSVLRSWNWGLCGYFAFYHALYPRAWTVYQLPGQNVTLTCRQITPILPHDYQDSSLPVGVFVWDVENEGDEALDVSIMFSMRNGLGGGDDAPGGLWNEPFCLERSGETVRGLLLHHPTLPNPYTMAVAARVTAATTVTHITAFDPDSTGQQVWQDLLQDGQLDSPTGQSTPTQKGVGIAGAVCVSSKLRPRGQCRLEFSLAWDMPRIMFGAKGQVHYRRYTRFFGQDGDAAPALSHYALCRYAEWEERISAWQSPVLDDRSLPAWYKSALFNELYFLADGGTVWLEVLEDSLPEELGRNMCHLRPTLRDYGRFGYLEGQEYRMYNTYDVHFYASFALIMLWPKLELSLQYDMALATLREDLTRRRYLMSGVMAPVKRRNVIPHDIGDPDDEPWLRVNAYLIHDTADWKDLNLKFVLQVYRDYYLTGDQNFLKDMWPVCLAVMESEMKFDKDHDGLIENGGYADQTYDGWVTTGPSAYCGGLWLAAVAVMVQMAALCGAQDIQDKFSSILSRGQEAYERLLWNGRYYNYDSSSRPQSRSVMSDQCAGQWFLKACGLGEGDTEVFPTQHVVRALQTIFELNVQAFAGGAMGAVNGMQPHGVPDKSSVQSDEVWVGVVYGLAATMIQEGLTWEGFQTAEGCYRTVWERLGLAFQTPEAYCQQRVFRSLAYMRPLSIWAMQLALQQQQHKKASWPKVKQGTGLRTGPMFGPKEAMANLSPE
UniProt Q9NZC3: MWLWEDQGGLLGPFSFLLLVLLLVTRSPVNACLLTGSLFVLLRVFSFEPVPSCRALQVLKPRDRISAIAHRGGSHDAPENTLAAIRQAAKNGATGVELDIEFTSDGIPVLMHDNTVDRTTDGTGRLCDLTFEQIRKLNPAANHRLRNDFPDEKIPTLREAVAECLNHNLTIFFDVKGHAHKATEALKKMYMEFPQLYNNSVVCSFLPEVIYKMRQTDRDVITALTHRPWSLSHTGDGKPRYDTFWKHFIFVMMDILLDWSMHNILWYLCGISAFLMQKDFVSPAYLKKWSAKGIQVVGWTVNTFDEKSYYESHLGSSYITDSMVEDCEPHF

The other results are listed elsewhere or left out.

Compound in this assay: CN1CCC(CNc2ccc3ncc(-c4cccc(OC(F)(F)F)c4)n3n2)CC1
The assay is described as follows: log2 fold change, soluble protein after heating vs DMSO (PISA); higher = thermal stabilisation; K562 lysate, 10 uM; active = over 0.2 and 3.5 SD of the protein, either way, in both replicates (recomputed). In outline:
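Quantification was by TMTpro 16plex LC-MS/MS with equalised channel sums, applied to the supernatant after 21,000xg for 90 min. Samples were crude K562 extract at 1 mg/mL protein in PBS pH 7.4 with 1 mM MgCl2, treated with 10 μM compound for 30 min, heated for 3 min across 48°C-58°C, pooled and brought to 0.5% NP-40 at 4°C. Values are log-two fold changes in thermal stability relative to solvent controls, from duplicates.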
As for GAS6 isoform 1 (UniProt Q14393), the log2 fold change was inactive: 0.188.

In the case of FZD1 (UniProt Q9UP38), the log2 fold change is inactive: 0.098.

For the target FUT1 (UniProt P19526), the log2 fold change is inactive: 0.093.

On to FUT11 (UniProt Q495W5), for which the log2 fold change was inactive: -0.068.

As to FSIP2 (UniProt Q5CZC0), the log2 fold change is inactive: 0.111.

Take GCA (UniProt P28676): the log2 fold change is inactive: 0.168.

Take GABPB2 (UniProt Q8TAK5): the log2 fold change is inactive: -0.022.

Take GEMIN7 (UniProt Q9H840): the log2 fold change is inactive: 0.064.

As to FUT4 (UniProt P22083), the log2 fold change was inactive: 0.162.

As to G3BP2 isoform 2 (UniProt Q9UN86), the log2 fold change was inactive: -0.032.

For GADD45A (UniProt P24522), the log2 fold change is inactive: -0.073.

For FZD5 (UniProt Q13467), the log2 fold change was inactive: 0.029.

For FRYL isoform 2 (UniProt O94915), the log2 fold change is inactive: -0.112.

On to FZR1 isoform 2 (UniProt Q9UM11), for which the log2 fold change was inactive: 0.032.

As for FOXO4 (UniProt P98177), the log2 fold change is inactive: 0.22.

As for GATA1 (UniProt P15976), the log2 fold change is inactive: -0.128.

Regarding GBA2 (UniProt Q9HCG7), the log2 fold change was inactive: 0.025.

In the case of GDE1 (UniProt Q9NZC3), the log2 fold change was active: -0.455.

In the case of GART (UniProt C9JZG2), the log2 fold change is inactive: 0.085.

For the target GBP2 (UniProt P32456), the log2 fold change was inactive: 0.239.
